Experimental data published in the supplement of paper PMC7877785.
± gives the uncertainty stated by the source. Many entries were measured with a wide error.

Test: self-splicing fitness, log relative to wild type (ln ratio); higher = more splicing; Tetrahymena group I intron in knt gene, E. coli kanamycin selection, DiMSum; sequences stand for … in CUCUCU…GGAGGGAAAAGUUAUCAGGCAUGCACCUGGUAGCUAGUCUUUAAACCAAUAGAUUGCAUCGGUUUAAAAGGCAAGACCGUCAAAUUGCGGGAAAGGGGUCAACAGCCGUUCAGUACCAAGUCUCAGGGGAAACUUUGAGAUGGCCUUGCAAAGGGUAUGGUAAUAAGCUGACGGACAUGGUCCUAACCACGCAGCCAAGUCCUAAGUCAACAGAUCUUCUGUUGAUAUGGAUGCAGUUCACAGACUAAAUGUCGGUCGGGGAAGAUGUAUUCUUCUCAUAAGAUAUAGUCGGACCUCUCCUUAAUGGGAGCUAGCGGAUGAAGUGAUGCAACACUGGAGCCGCUGGGAACUAAUUUGUAUGCGAAAGUAUAUUGAUUAGUUUUGGAGUACUCGUGGUCG
Procedure, shortened: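 Library with all eight P1ex-region intron nucleotides randomised, intron inside the knt kanamycin-resistance gene on pET-22b(+), in E. coli BL21(DE3). Cells grew overnight at 37°C or 30°C on LB agar with or without 25 μg/mL kanamycin (plus 100 μg/mL carbenicillin, 50 μM IPTG, 0.2% rhamnose), in six replicate transformations. Pooled colonies were amplicon-sequenced on Illumina HiSeq 2500. DiMSum fitness is the error-weighted combination of wild-type-normalised replicate fold changes, kanamycin versus none.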

| Sequence | self-splicing fitness (ln) (30 °C) | self-splicing fitness (ln) (37 °C) |
| --- | --- | --- |
| UGAGAGCAAUAUUACGUGUC | -4.82 ± 1 | -2.26 ± 0.57 |
| AGUUAGCAAUAUUACGAAGA | -1.18 ± 0.4 | -2.26 ± 0.34 |
| AUUGAGCAAUAUUACGGGCG | -4.6 ± 0.59 |  |
| ACUUAGCAAUAUUACGAAUA | -2.63 ± 0.56 |  |
| UCUAAGCAAUAUUACGCACC |  | -2.05 ± 0.58 |
| GGGAAGCAAUAUUACGGGGU | -3.97 ± 0.74 |  |
| CAUGAGCAAUAUUACGCCCU | -2.76 ± 0.54 |  |
| UUUUAGCAAUAUUACGUUGC |  | -2.36 ± 0.63 |
| CUUGAGCAAUAUUACGGGCC | -3.31 ± 0.74 |  |
| UUCGAGCAAUAUUACGAAGU | -3.6 ± 1 |  |
| CCUGAGCAAUAUUACGGCCC |  | -1.95 ± 0.54 |
| CCCCAGCAAUAUUACGUACC | -4.07 ± 0.18 | -3.36 ± 0.35 |
| CUAUAGCAAUAUUACGUGGC | -2.86 ± 0.24 | -1.8 ± 0.28 |
| AGCAAGCAAUAUUACGCCUC |  | 0.0117 ± 1.2 |
| GAGCAGCAAUAUUACGCCUC | -2.37 ± 0.64 | -2.67 ± 1.1 |
| UCGUAGCAAUAUUACGGAAU | -3.72 ± 0.74 |  |
| UGUAAGCAAUAUUACGUGUG | -1.04 ± 0.085 | -0.237 ± 0.095 |
| GCCAAGCAAUAUUACGUGUC | -1.62 ± 0.06 | -0.848 ± 0.075 |
| AGCGAGCAAUAUUACGGGAA | -4.19 ± 0.53 |  |
| CGAAAGCAAUAUUACGAUAU | -3.42 ± 0.28 | -1.27 ± 0.2 |

| Sequence | self-splicing fitness (ln) (30 °C) | self-splicing fitness (ln) (37 °C) |
| --- | --- | --- |
| CAUAAGCAAUAUUACGUUCC | -3.94 ± 0.32 | -0.522 ± 0.77 |
| GUGCAGCAAUAUUACGGACC |  | -0.677 ± 0.77 |
| CGGUAGCAAUAUUACGCCGC |  | -1.02 ± 0.66 |
| ACGGAGCAAUAUUACGGCUU |  | -2.46 ± 0.77 |
| UCGUAGCAAUAUUACGCCUC | -2.81 ± 1.1 |  |
| UGCUAGCAAUAUUACGCCUC | -4.92 ± 0.59 | -2.73 ± 0.54 |
| AGCGAGCAAUAUUACGCAUA | -2.86 ± 0.61 |  |
| UGCGAGCAAUAUUACGCGAC |  | -0.595 ± 1.4 |
| GGUCAGCAAUAUUACGAAAA |  | -1.29 ± 1.2 |
| UCUAAGCAAUAUUACGAAAC | -2.95 ± 0.53 |  |
| UCACAGCAAUAUUACGCUUC | -4.3 ± 0.43 | -3.28 ± 0.43 |
| UAAGAGCAAUAUUACGUAUC | -4.69 ± 1 | -2.67 ± 1.1 |
| CCUUAGCAAUAUUACGCCUC | -3.57 ± 0.52 |  |
| AAGCAGCAAUAUUACGAAUU | -0.851 ± 0.069 | 0.12 ± 0.099 |
| UACGAGCAAUAUUACGUGGC | -3.48 ± 0.53 | -2.9 ± 0.61 |
| UUAGAGCAAUAUUACGGGGC |  | -2.64 ± 1.1 |
| CAGGAGCAAUAUUACGCCAG |  | -1.83 ± 0.78 |
| CCUAAGCAAUAUUACGUCUG | -2.15 ± 0.2 | -2 ± 0.24 |
| UGCUAGCAAUAUUACGUACC | -2.44 ± 1.1 |  |
| GGUUAGCAAUAUUACGAAAC | -1.08 ± 0.87 |  |

Single records (already shown).
GUGCAGCAAUAUUACGGACC is entered as self-splicing fitness (ln) (37 °C): -0.677 ± 0.77
CAUAAGCAAUAUUACGUUCC is entered as self-splicing fitness (ln) (30 °C): -3.94 ± 0.32; self-splicing fitness (ln) (37 °C): -0.522 ± 0.77

(next part)

| Sequence | self-splicing fitness (ln) (30 °C) | self-splicing fitness (ln) (37 °C) |
| --- | --- | --- |
| GUGGAGCAAUAUUACGCAGG | -3.8 ± 0.52 |  |
| ACCCAGCAAUAUUACGAACA | -0.802 ± 0.11 | -1.35 ± 0.13 |
| CGCGAGCAAUAUUACGUUAC | -4.07 ± 0.28 | -1.78 ± 0.33 |
| UCUGAGCAAUAUUACGCAGC |  | -1.69 ± 0.67 |
| AGUGAGCAAUAUUACGCCAA | -3.85 ± 0.52 | -0.938 ± 0.57 |
| UAUCAGCAAUAUUACGAAAC | -2.93 ± 1.1 |  |
| CCCCAGCAAUAUUACGACCC |  | -2.02 ± 0.64 |
| AGACAGCAAUAUUACGAAUA | -2.38 ± 0.24 | -1.62 ± 0.19 |
| AUGGAGCAAUAUUACGAGCG | -2.91 ± 0.53 | -2.76 ± 0.76 |
| UCAGAGCAAUAUUACGACCG | -3.48 ± 1.1 | -1.37 ± 1.2 |
| AGUAAGCAAUAUUACGUUAG |  | -2.91 ± 0.74 |
| UCGUAGCAAUAUUACGAUUC | -1.07 ± 0.5 | -1.83 ± 1.1 |
| UUGUAGCAAUAUUACGCCAA | -1.22 ± 0.13 | -0.297 ± 0.13 |
| UUCGAGCAAUAUUACGAAUU | -4.49 ± 1 | -2.64 ± 1.1 |
| GAUGAGCAAUAUUACGGCCG |  | -1.1 ± 0.72 |
| GGUAAGCAAUAUUACGCCCG | -2.57 ± 0.77 |  |
| UACUAGCAAUAUUACGAGAC | -4.7 ± 0.73 |  |
| CAGCAGCAAUAUUACGCUGG | -2.69 ± 0.15 | -2.43 ± 0.17 |
| CAGAAGCAAUAUUACGAUUC | -4.53 ± 0.52 | -1.98 ± 0.18 |
